# Reference: the supplement of paper PMC3334620
# In all, about 33,000 sequences were measured (“E-score (-0.5 to 0.5)”: median about -0.0034, highest 2% from about 0.25 on). Some of the results follow.
# Biological target: T1, Yap3 (UniProt P38749)
# T1 sequence: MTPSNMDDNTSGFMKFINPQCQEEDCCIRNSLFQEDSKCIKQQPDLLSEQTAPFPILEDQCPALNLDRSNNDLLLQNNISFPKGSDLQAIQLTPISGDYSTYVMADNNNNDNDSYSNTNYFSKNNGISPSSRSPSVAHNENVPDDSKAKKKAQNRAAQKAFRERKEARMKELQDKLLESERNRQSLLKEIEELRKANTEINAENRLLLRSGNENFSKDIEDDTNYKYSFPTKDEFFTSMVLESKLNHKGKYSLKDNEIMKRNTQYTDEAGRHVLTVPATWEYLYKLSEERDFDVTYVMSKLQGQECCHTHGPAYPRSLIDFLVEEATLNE
# Assay: PBM E-score (8-mer binding enrichment) (E-score (-0.5 to 0.5)); higher = stronger / more preferred TF binding
# Conditions: protein concentration: 100 nM; construct: GST-full length
# Summary of the method: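 Universal all-10-mer Agilent arrays, fresh or stripped once, were converted to double-stranded form by primer extension. GST-tagged yeast transcription factors from PURExpress in vitro transcription/translation, full-length or DNA-binding domain only, were applied at about 100-200 nM and detected with fluorescent anti-GST. After masliner normalisation, the Universal PBM Analysis Suite scored each ungapped eight-base word together with its reverse complement by E-score.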
row,Sequence,PBM E-score
1,GCGAGAGC,-0.189
2,CATTATCA,0.161
3,ACCGCTAA,0.0803
4,AGACAATA,0.339
5,AGCGAAAG,-0.00489
6,TAGTATGA,0.255
7,CGAAAGAG,-0.109
8,GCAAATGA,0.032
9,AATTTGCT,0.115
10,CAAATGCA,0.0707
11,ATAGAAGA,-0.0599
12,GACCAACA,0.166
13,GCATCATA,0.193
14,ACATAGGT,0.0589
15,GAAAGTAC,0.0642
16,ACACTTGA,-0.0909
17,CCACATAC,0.249
18,AGAGCCCC,-0.247
19,GACGATAC,0.0645
20,TCATAGAA,0.155
21,ACACACCA,0.18
22,GTAGACGA,-0.0932
23,CCTACGCC,-0.258
24,AGAGCGAG,-0.0518
25,ATCACGCC,0.00117

row,Sequence,PBM E-score
1,TCGAAGCA,-0.0793
2,GAACCACA,0.182
3,CGCCATAA,0.00011
4,GAGAACAC,-0.00708
5,GACGTGAC,-0.0761
6,CGGACGTC,-0.0436
7,ACCCAGAT,-0.103
8,ATAAGTCC,0.0332
9,TATTAAGA,-0.0373
10,GTATTTGA,0.137
11,ATCTATTC,0.147
12,AGATTTCA,0.0532
13,ATGGCATC,0.125
14,GGAGCGAA,-0.118
15,CGGTACGC,-0.146
16,GGGCAGTA,0.0457
17,GGGTCACA,-0.275
18,CCTGTTCC,-0.0284
19,ACGGGATG,-0.087
20,CGTCGCAC,-0.118
21,GAAAGCGA,0.189
22,AACTGCTA,0.00439
23,CAGGTGTC,-0.0788
24,CCCAAAGA,-0.0276
25,AGCCTCTG,-0.246

# Random excerpt: 3 records from the list
row,Sequence,PBM E-score
1,TCGAAGCA,-0.0793
25,AGCCTCTG,-0.246
13,ATGGCATC,0.125

# Given with bars between the fields: entries from further up.
row | Sequence | PBM E-score
15 | CGGTACGC | -0.146
16 | GGGCAGTA | 0.0457

# (cont.)

row,Sequence,PBM E-score
1,AACTAAGA,0.203
2,GATCTAGA,-0.086
3,ACATCCAT,0.0624
4,ATCTTGTA,-0.0617
5,AGAATGTC,-0.00558
6,TACGGACA,0.00091
7,GACAGTGA,-0.00594
8,TACACGCA,-0.116
9,TAAGCCAA,0.105
10,ACACAATA,0.118
11,CACAACGG,-0.0672
12,CATGGCCG,0.078
13,CTTCGATC,-0.0257
14,TGCACACA,-0.0748
15,ATGGAAGG,-0.139
16,GATCCGTA,-0.126
17,CCTTGAGC,-0.0442
18,ACTGTCAT,0.0728
19,AGATTTAC,0.161
20,GAACCTGC,-0.162
21,AAGCCGTC,0.00506
22,ATGGTACC,0.0191
23,GGAGAGAA,-0.0298
24,AAACAGGC,-0.13
25,AAGAACAA,0.267

row,Sequence,PBM E-score
1,ATGAAGAG,0.145
2,GTTCAAAC,0.0634
3,AGTGGCAC,-0.0705
4,CGGTAACC,-0.182
5,ACAGTCAT,-0.0786
6,AACAGTCA,0.104
7,ACCGCTCC,-0.178
8,ATGACTCA,0.185
9,CTTCGAAA,0.0423
10,AAGTGAGG,-0.0879
11,ATCTACGC,0.0991
12,CAAGAATA,0.144
13,CCCTACCG,-0.205
14,CATACTGC,-0.133
15,CAGGCGGG,-0.132
16,TGGTAGAA,-0.0125
17,TAAAAGAA,0.186
18,CAGCACAG,0.0268
19,AGATCCGC,-0.132
20,ATGCCAAC,0.074
21,CAACGATA,0.0838
22,AAATCTAG,0.0113
23,GCGACTGA,-0.119
24,GTGTTAGA,0.133
25,AGGAGTCG,-0.128

row,Sequence,PBM E-score
1,GAACAATA,0.142
2,CACAGCGG,-0.0949
3,AATAGGGA,-0.0992
4,GCTGGCAA,0.0911
5,ATTAGTGC,0.299
6,TCAGGCGA,-0.0657
7,ACCCGCAA,-0.239
8,ACTTGTTA,0.13
9,CGAACCTA,-0.019
10,CTCACGCA,0.233
11,CCTGGATC,-0.131
12,CTGCGCAG,-0.232
13,ATCTTCTC,0.0857
14,CCATGCCC,-0.24
15,CTGGGCCA,-0.355
16,ATTATAAC,0.118
17,GTGAGATA,0.0843
18,AGAATGTG,0.0491
19,CCTGCCCG,-0.105
20,CGTACAAA,0.108
21,CACGCCAG,-0.23
22,AGACTAAA,0.0718
23,CTTTACCA,0.0597
24,CCGTGCCG,-0.124
25,ATCCGAGC,-0.0401

row,Sequence,PBM E-score
1,CCACGAAG,-0.199
2,CCGTCGCG,0.0551
3,AGGAAGAT,0.13
4,GAGAAGAC,-0.0447
5,AAATTTGT,0.17
6,ATTCCGTG,0.00947
7,ACTATCTA,0.112
8,CAGAAGAG,-0.223
9,GTTCGGGA,0.0952
10,CCGAGAGG,-0.18
11,GAGCAAGA,-0.0492
12,CAGCCTCG,-0.0218
13,GGTGTTTA,0.0984
14,ACATTCGA,0.0603
15,ATAATAAT,0.26
16,AGCAGGAT,0.0353
17,ACCCCCGC,-0.249
18,CGCTCAAC,-0.0371
19,AGCCGGGC,-0.316
20,GGGATATA,0.0741
21,GAACAGAC,0.0459
22,GTTGGGAA,0.014
23,AAACCTTG,-0.0379
24,TCCATCAA,0.0742
25,GGAGGTGA,-0.069

row,Sequence,PBM E-score
1,ACTGGTCC,-0.136
2,CGTAGGAG,-0.179
3,CACGTCAG,0.00064
4,ATAACTAA,0.162
5,ATGTTTAC,0.0808
6,AAGTATCT,0.00464
7,GCGCAGAA,0.117
8,GATGCTTA,-0.0189
9,AGTCAACC,-0.105
10,GGCATTAA,0.0633
11,GGCTGCAC,-0.206
12,GTGGGTAA,-0.0064
13,ACTGAAGT,0.0602
14,GACAGGCA,-0.0173
15,ATTCGATC,0.0899
16,GGTATAGA,0.004
17,CACGCGCC,0.0151
18,AAAGTATT,0.187
19,CGGTGTAA,-0.088
20,GAGCAGGC,-0.199
21,AGCCCCGA,-0.224
22,TAGGCCAA,-0.0211
